Measured values reported in patent publication US20190191675A1.
No constants are given. Whether binding was seen depends on the method and setting. In cells and extracts the contact can be indirect. Some binding calls cover weakened binding; strength is not graded here. Tags and fused reporters may be left off the sequences shown.

Amino acid sequences for entries named in this document (tags omitted).
UniProt Q8C147: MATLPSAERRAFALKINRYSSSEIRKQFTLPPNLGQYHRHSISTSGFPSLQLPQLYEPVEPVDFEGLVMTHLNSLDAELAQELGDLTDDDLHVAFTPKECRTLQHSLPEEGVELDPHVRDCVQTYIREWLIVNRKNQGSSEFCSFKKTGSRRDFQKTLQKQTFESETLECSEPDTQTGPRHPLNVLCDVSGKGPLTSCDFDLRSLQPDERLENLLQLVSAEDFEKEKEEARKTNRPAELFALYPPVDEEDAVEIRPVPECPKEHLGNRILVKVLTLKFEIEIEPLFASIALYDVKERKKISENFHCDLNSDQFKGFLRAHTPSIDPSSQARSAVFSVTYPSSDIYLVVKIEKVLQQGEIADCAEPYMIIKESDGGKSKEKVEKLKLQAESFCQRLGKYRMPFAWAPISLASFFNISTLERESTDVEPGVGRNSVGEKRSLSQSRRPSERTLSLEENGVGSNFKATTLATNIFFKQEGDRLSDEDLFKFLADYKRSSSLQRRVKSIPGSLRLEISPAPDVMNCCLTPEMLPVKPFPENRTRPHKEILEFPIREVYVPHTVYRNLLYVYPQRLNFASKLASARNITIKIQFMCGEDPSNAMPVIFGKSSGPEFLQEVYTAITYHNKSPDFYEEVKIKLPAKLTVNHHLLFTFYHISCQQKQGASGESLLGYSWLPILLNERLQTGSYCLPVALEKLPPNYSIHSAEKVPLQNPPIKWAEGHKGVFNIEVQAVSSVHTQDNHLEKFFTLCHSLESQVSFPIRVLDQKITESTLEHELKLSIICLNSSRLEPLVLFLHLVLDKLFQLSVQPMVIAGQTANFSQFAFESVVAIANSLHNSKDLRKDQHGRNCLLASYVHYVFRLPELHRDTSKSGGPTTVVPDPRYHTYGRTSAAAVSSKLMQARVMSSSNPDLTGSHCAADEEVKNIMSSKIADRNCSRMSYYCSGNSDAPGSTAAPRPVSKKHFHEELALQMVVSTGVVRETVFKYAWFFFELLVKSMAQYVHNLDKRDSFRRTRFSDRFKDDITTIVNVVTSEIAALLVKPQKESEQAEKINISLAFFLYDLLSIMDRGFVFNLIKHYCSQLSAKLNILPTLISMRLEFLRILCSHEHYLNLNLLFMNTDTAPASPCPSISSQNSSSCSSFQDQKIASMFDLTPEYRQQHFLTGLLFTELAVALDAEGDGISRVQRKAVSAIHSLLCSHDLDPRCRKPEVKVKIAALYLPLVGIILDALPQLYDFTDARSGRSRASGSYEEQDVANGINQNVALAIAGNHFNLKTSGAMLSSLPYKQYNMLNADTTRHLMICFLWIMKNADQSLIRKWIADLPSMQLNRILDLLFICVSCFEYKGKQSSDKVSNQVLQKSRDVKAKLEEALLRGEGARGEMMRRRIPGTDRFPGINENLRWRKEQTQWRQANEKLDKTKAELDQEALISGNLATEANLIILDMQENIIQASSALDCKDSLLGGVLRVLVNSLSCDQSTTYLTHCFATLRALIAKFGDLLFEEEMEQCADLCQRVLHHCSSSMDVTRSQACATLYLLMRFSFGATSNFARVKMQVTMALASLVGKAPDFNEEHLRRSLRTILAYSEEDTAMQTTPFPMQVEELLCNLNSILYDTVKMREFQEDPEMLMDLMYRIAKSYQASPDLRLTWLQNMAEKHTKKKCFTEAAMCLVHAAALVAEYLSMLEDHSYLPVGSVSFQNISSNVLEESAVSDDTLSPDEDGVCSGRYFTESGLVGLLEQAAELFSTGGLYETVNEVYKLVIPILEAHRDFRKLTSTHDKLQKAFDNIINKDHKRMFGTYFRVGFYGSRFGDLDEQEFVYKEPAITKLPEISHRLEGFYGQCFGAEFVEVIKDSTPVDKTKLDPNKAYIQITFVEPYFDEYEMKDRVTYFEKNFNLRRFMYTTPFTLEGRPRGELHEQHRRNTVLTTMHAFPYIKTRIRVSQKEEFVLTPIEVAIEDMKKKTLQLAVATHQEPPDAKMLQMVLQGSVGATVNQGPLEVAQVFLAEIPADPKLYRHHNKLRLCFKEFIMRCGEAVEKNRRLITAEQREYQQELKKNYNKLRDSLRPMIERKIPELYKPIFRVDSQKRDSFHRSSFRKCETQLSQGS

Assays:
[1] = molecular target: T1, FLAG-tagged or V5-tagged mouse MST1 (pcDNA-MST1) (mouse) (UniProt Q9JI11); experiment: co-immunoprecipitation, FIG. 36(a)
T1 sequence (looked up): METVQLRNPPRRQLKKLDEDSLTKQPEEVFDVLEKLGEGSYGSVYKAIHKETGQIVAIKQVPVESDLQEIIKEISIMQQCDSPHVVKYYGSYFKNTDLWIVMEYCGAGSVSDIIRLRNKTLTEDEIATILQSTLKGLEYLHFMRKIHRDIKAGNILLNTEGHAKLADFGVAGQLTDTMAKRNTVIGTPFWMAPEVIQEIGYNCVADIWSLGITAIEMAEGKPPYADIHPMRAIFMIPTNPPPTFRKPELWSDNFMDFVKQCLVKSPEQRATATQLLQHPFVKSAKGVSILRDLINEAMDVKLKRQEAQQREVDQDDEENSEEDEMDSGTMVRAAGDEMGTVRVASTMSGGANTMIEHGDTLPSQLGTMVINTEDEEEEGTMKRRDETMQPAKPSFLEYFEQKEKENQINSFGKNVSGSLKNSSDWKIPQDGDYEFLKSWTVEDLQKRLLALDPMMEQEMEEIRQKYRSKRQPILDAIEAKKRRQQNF

[2] = molecular target: T1, FLAG-tagged or V5-tagged mouse MST1 (pcDNA-MST1) (mouse); experiment: search for binding proteins; co-immunoprecipitation

## HA-tagged mouse DOCK8 (pcDNA-DOCK8) (from UniProt Q8C147 1-2100)
[1]
  binding: binds
[2]
  binding: binds
